Laboratory results taken from PubChem BioAssay AID2685 (National Center for Advancing Translational Sciences (NCATS), 2010).
The other results are listed elsewhere or left out. Shown are side measurements of this screen, not its main read-out; they come without a call. The list favours compounds with an active or inconclusive main result. The note in brackets gives the kind of curve behind each potency; many fits are weak.

Test: qHTS Assay for Lipid Storage Modulators in Drosophila S3 Cells;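 as to cell number change: cells counted by Cell Tracker Red CMTPX staining in the red channel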
Settings: BODIPY lipid droplet fluorescence, 18-24 h; for cell number change: measured here: cell count max response, cells fed with added oleic acid
Summary of the method: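 Laser-scanning cytometry quantifies lipid droplet accumulation (500–530 nm total intensity; droplet/cell object ratio) in oleic acid-fed (400 uM added) Drosophila S3 cells treated with a concentration series. 20 uM Triacsin C defined 100% inhibition.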

[1] = measured here: lipid fluorescence (Fed channel) AC50, cells fed with added oleic acid
[2] = measured here: cell number channel AC50, cells fed with added oleic acid

SMILES	cell number change [%]	AC50 [1]	AC50 [2]
CCN(CC)S(=O)(=O)c1ccc(OC)c(NC(=O)CSc2ccccc2)c1	-19.6	32.6 µM [falling, single point]	
Cc1cc(O)ccc1Nc1nc2ccccc2nc1Nc1ccc(O)cc1C	-9.45	0.116 µM [falling, single point]	
CC1=C(C(=O)OCCOC(C)C)C(c2cc3c(cc2Br)OCO3)CC(=O)N1 (stereo unspecified)	20.1		
CCOC(=O)CSc1ncnc2c1cnn2-c1ccc(Cl)cc1		0.116 µM [falling, full curve]	
c1ccc(Nc2ccccn2)cc1		6.51 µM [falling, single point]	
CC1=C(C(=O)OCc2ccccc2)C(c2ccc3ccccc3c2)NC(=O)N1CCCC(=O)O (stereo unspecified)	-1.8	29.1 µM [rising, single point]	
CC(=O)c1ccc(OCc2cc(C(=O)N3CCC[C@H]3CO)no2)cc1	10.8	29.1 µM [falling, single point]	
CC(C)(C)C(=O)Nc1ccc(C(=O)CSc2nnc(C3CC3)n2C2CC2)cc1	2.32	29.1 µM [rising, single point]	
COc1ccc(C(=O)N2CCCC(Nc3ccc(F)cc3)C2)cc1F (stereo unspecified)	24.3	29.1 µM [rising, single point]	
COC(=O)C(Cc1ccccc1)NC(=O)C12CC3CC(CC(C3)C1)C2 (stereo unspecified)	-47.1	7.31 µM [falling, partial curve]	9.2 µM [falling, partial curve]
C=C(C)COc1ccc(-c2ncncc2-c2ccc(Br)cc2)c(O)c1	7.21	29.1 µM [rising, single point]	
CCC(C)(C)NC(=O)C(c1ccc(OC)cc1)N(C(=O)CCC(=O)Nc1cc(C)on1)c1ccccc1OC (stereo unspecified)	22.9	0.731 µM [falling, partial curve]	
CCn1c(SCC(=O)N/N=C/c2cc(OC)c(OC)c(OC)c2)nc2ccccc21	29.7		
COc1cccc(CN2CC(C(=O)NCCCCc3ccccn3)CCC2=O)c1 (stereo unspecified)	10.1	29.1 µM [rising, single point]	
Cc1sc(N/N=C/c2ccco2)nc1-c1ccccc1	37	9.2 µM [rising, partial curve]	7.31 µM [rising, partial curve]
O=C(CCCc1ccccc1)N1CCN(C2CCCCC2)CC1	20.5	0.58 µM [rising, single point]	0.731 µM [rising, full curve, poor fit]
O=C(NCc1ccco1)c1cnn2c(C(F)(F)F)cc(-c3ccco3)nc12		2.91 µM [rising, partial curve, poor fit]	0.164 µM [rising, partial curve, poor fit]
CSc1ccc(S(=O)(=O)N2CCC(C(=O)Nc3ccc(NC(C)=O)cc3)CC2)cc1	5.86	29.1 µM [rising, single point]	

Another view of 2 compounds above.
COc1ccc(C(=O)N2CCCC(Nc3ccc(F)cc3)C2)cc1F (stereo unspecified)
  cell number change [%]: 24.3; AC50 [1]: 29.1 µM [rising, single point]
CCn1c(SCC(=O)N/N=C/c2cc(OC)c(OC)c(OC)c2)nc2ccccc21
  cell number change [%]: 29.7

The list goes on.

SMILES	cell number change [%]	AC50 [1]	AC50 [2]
COc1ccc(-c2nn(-c3ccccc3)cc2C(=O)NCCCn2ccnc2)cc1	10.3	1.3 µM [falling, single point]	
CCOC(=O)c1c(NC(=O)CCl)sc(C(=O)N(CC)CC)c1C	12.8	0.731 µM [falling, full curve, poor fit]	
COCc1cc(C)n(CC(=O)Nc2ccc(N3CCOCC3)cc2)c(=O)c1C#N	-37.5	23.1 µM [falling, partial curve]	14.6 µM [falling, partial curve, poor fit]
CCOC(=O)C1(Cc2ccccc2)CCN(Cc2ccc(C3CCCCO3)s2)CC1 (stereo unspecified)	32.6		29.1 µM [rising, single point]
Nc1ccccc1Sc1c[nH]c2ccccc12	-14.7	5.17 µM [rising, partial curve]	
Cc1ccc(F)cc1NC(=O)COC(=O)C1CCN(c2ccc(C(F)(F)F)cn2)CC1		0.13 µM [rising, full curve, poor fit]	4.11 µM [rising, partial curve, poor fit]
CC(=O)CCc1ccc(OCCCOc2cccc3cccnc23)cc1	-38.6	18.4 µM [falling, single point]	16.4 µM [falling, single point]
COc1ccc(CNC(=O)CN2C(=O)NC3(CCCc4sccc43)C2=O)cc1OC (stereo unspecified)	4.64	0.82 µM [falling, single point]	
Cn1cc(/C=C(\C(=O)O)C(C(=O)O)=C2CCCCC2)c2ccccc21	-35.3	25.9 µM [falling, single point]	29.1 µM [falling, single point]
CCOc1ccc(OCCCCn2ccnc2)cc1	-16.7	25.9 µM [rising, partial curve, poor fit]	0.00461 µM [falling, full curve, poor fit]
S=C(NCCN1CCOCC1)Nc1ccc(Cl)cc1	-3.77	0.517 µM [rising, partial curve, poor fit]	
CCCCN(CC)S(=O)(=O)c1ccc(C(=O)N=c2sc3cc(NC(C)=O)ccc3n2C)cc1	-15.9	6.51 µM [falling, single point]	6.51 µM [falling, single point]
COC(=O)c1cccc(NC(=O)Cc2nc(-c3ccccc3)sc2-c2ccc(C)cc2)c1	3.13	0.651 µM [rising, single point]	
Cc1ccc(S(=O)(=O)N2CCN(C(=O)N3CCCC3)CC2)cc1	-22.4		
COc1cccc2cc(C(=O)NCCC3=CCCCC3)c(=O)oc12	62.3		14.6 µM [rising, partial curve]
CCOC(=O)C1C(c2cccc(F)c2)NC(=S)NC1(O)C(F)(F)F (stereo unspecified)	86.6	6.51 µM [rising, partial curve]	1.3 µM [rising, full curve]
CC(C)c1ccc(NC(=O)C2CCN(c3ncnc4c3nc3n4CCCCC3)CC2)cc1	-17.6		
O=C(O)c1cc(-c2ccc(Cl)cc2)n(-c2ccc(F)cc2)n1	-33.4	29.1 µM [falling, single point]	29.1 µM [falling, single point]
